Laboratory results: US20160304957A1, “TREATMENT AND MODULATION OF GENE EXPRESSION AND SKIN AGING” (DSM NUTRITIONAL PRODUCTS LTD., priority 2006, published 2016)

Test system: HaCaT human keratinocytes
Assay: Affymetrix GeneChip microarray, transcriptional response to β-carotene and/or UVA
Format: cell-based
Experimental: The cell culture experiments were carried out as described. Briefly, a subclone of passage 65 HaCaT keratinocytes, selected for differentiation capacity, was used at passages 16 to 23 after subcloning. 2×10^5 cells were seeded per 60 millimeter dish. Starting the following day, the cells were pretreated for 2 days with β-carotene at 1.5 μM, a typical concentration in human plasma after moderate dietary supplementation)
β-carotene-containing medium was prepared as follows. Fresh all-E-β-carotene (DSM Nutritional Products, Kaiseraugst, Switzerland) stock solution in THF (containing 0.025% BHT; Fluka Chemie A G, Switzerland) was diluted 1:2 with ethanol and added to cell culture medium to a final concentration of 1.5 μM β-carotene. The solvent concentration in the medium was 0.5% for all treatments. β-carotene-containing medium was prepared fresh for the daily medium changes.
On day 3 of the experiment, the cells were irradiated with a Hönle sun lamp Sol 500 (270 kJ/m^2; Dr. Hönle, Germany).
Five independent, factorially designed cell irradiation experiments were analyzed by microarray hybridization. For each experiment, one chip was hybridized per treatment condition. GeneChip® analysis was done as described in [132], which is incorporated by reference, as if recited in full herein. Gene regulation by β-carotene and/or UVA was calculated relative to placebo.
Changes in gene expression were included in further analysis only if the change factor was […], and if unpaired t-tests yielded p values≦0.05. Upregulations by a […] are labeled bold, downregulations by a change factor of […] are labeled bold italics. (Table 1) To identify the pathways affected by the treatments functional information on the genes was retrieved from public literature databases.

## CC1=C(/C=C/C(C)=C/C=C/C(C)=C/C=C/C=C(C)/C=C/C=C(C)/C=C/C2=C(C)CCCC2(C)C)C(C)(C)CCC1 [β-carotene, All-E-β-carotene]
co-treatment with UVA radiation and β-carotene
  number of genes regulated: 1142 genes
Of 568 UVA-regulated genes
  number of UVA-regulated genes with UVA effect enhanced: 180 genes
  number of UVA-regulated genes with UVA effect reduced: 143 genes
  number of UVA-regulated genes with no effect: 245 genes
β-carotene 1.5 μM alone
  number of genes regulated: 381 genes
